According to PMC4826214:
No constants are given. Whether binding was seen depends on the method and setting. In cells and extracts the contact can be indirect. Some results given as binding are weak or reduced against the parent protein; the word gives no strength.

T1: CD95 (death receptor Fas, APO-1) (human (endogenous in DU145)), P25445
T1 chain: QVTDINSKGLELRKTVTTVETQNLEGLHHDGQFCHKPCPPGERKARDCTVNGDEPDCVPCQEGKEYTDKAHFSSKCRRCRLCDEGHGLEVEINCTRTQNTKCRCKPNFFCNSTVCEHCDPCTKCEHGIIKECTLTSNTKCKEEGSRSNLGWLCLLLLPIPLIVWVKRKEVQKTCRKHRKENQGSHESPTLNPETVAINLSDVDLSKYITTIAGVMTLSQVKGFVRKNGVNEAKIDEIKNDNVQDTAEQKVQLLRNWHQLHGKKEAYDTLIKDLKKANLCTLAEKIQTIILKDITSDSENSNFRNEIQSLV

B1: caspase-8, active form (p26/24 and p18), Q14790 1-479 (enzyme)
chain: MDFSRNLYDIGEQLDSEDLASLKFLSLDYIPQRKQEPIKDALMLFQRLQEKRMLEESNLSFLKELLFRINRLDLLITYLNTRKEEMERELQTPGRAQISAYRVMLYQISEEVSRSELRSFKFLLQEEISKCKLDDDMNLLDIFIEMEKRVILGEGKLDILKRVCAQINKSLLKIINDYEEFSKERSSSLEGSPDEFSNGEELCGVMTISDSPREQDSESQTLDKVYQMKSKPRGYCLIINNHNFAKAREKVPKLHSIRDRNGTHLDAGALTTTFEELHFEIKPHDDCTVEQIYEILKIYQLMDHSNMDCFICCILSHGDKGIIYGTDGQEAPIYELTSQFTGLKCPSLAGKPKVFFIQACQGDNYQKGIPVETDSEEQPYLEMDLSSPQTRYIPDEADFLLGMATVNNCVSYRNPAEGTWYIQSLCQSLRERCPRGDDILTILTEVNYEVSNKDDKKNMGKQMPQPTFTLRKKLVFPSD
B2: Fas-associated death domain-containing protein (FADD), Q13158 1-208 (protein)
chain: MDPFLVLLHSVSSSLSSSELTELKFLCLGRVGKRKLERVQSGLDLFSMLLEQNDLEPGHTELLRELLASLRRHDLLRRVDDFEAGAAAGAAPGEEDLCAAFNVICDNVGKDWRRLARQLKVSDTKIDSIEDRYPRNLTERVRESLRIWKNTEKENATVAHLVGALRSCQMNLVADLVQEVQQARDLQNRSGAMSPMSWNSDASTSEAS

Molecular target: T1, CD95 (death receptor Fas, APO-1) (human …)
Assay: co-IP; 400 ug total protein of DU145 cells (RIPA buffer) immunoprecipitated with a rabbit CD95 antibody; SDS-PAGE and Western blot with mouse caspase-8 (active format) and FADD antibodies; cells treated 48 hr with Sild (10 uM) and/or DOX (0.5 uM)
Conditions: remark: other sources report otherwise

| Binder | binding |
| --- | --- |
| B1 | binds |
| B2 | binds |
